Results: the supplement of paper PMC10849652
The list shows a part of the results.

The chains behind the UniProt entries cited, without tags or fusion partners. Where a name states a change or a piece, a line headed by the entry shows the natural chain unless it says otherwise.
UniProt P53634: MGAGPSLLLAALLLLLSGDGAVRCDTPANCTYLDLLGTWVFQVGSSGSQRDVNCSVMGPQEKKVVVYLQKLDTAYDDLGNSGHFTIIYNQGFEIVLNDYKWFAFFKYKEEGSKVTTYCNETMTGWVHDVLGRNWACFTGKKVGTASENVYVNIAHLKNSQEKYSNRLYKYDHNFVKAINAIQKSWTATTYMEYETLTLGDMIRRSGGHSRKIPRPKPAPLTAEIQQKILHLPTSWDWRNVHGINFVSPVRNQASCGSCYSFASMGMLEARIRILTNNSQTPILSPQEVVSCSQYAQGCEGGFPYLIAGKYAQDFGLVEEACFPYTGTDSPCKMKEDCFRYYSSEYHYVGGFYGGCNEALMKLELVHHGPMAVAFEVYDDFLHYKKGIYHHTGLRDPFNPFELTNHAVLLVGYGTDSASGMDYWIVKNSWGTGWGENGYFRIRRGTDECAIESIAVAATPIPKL
UniProt Q14247: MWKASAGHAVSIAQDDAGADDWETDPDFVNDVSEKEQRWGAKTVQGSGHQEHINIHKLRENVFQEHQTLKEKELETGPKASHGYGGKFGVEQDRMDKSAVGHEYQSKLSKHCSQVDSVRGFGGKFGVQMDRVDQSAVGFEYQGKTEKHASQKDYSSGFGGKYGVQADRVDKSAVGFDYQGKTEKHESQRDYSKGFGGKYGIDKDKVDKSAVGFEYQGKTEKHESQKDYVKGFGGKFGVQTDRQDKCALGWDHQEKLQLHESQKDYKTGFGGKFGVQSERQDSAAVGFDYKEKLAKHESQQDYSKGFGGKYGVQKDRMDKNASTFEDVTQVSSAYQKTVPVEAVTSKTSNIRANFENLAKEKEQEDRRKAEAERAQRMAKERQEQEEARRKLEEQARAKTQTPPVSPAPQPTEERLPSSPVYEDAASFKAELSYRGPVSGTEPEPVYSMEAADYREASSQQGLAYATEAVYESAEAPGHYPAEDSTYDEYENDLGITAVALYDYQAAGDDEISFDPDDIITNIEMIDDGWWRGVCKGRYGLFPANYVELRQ
UniProt Q5TZA2: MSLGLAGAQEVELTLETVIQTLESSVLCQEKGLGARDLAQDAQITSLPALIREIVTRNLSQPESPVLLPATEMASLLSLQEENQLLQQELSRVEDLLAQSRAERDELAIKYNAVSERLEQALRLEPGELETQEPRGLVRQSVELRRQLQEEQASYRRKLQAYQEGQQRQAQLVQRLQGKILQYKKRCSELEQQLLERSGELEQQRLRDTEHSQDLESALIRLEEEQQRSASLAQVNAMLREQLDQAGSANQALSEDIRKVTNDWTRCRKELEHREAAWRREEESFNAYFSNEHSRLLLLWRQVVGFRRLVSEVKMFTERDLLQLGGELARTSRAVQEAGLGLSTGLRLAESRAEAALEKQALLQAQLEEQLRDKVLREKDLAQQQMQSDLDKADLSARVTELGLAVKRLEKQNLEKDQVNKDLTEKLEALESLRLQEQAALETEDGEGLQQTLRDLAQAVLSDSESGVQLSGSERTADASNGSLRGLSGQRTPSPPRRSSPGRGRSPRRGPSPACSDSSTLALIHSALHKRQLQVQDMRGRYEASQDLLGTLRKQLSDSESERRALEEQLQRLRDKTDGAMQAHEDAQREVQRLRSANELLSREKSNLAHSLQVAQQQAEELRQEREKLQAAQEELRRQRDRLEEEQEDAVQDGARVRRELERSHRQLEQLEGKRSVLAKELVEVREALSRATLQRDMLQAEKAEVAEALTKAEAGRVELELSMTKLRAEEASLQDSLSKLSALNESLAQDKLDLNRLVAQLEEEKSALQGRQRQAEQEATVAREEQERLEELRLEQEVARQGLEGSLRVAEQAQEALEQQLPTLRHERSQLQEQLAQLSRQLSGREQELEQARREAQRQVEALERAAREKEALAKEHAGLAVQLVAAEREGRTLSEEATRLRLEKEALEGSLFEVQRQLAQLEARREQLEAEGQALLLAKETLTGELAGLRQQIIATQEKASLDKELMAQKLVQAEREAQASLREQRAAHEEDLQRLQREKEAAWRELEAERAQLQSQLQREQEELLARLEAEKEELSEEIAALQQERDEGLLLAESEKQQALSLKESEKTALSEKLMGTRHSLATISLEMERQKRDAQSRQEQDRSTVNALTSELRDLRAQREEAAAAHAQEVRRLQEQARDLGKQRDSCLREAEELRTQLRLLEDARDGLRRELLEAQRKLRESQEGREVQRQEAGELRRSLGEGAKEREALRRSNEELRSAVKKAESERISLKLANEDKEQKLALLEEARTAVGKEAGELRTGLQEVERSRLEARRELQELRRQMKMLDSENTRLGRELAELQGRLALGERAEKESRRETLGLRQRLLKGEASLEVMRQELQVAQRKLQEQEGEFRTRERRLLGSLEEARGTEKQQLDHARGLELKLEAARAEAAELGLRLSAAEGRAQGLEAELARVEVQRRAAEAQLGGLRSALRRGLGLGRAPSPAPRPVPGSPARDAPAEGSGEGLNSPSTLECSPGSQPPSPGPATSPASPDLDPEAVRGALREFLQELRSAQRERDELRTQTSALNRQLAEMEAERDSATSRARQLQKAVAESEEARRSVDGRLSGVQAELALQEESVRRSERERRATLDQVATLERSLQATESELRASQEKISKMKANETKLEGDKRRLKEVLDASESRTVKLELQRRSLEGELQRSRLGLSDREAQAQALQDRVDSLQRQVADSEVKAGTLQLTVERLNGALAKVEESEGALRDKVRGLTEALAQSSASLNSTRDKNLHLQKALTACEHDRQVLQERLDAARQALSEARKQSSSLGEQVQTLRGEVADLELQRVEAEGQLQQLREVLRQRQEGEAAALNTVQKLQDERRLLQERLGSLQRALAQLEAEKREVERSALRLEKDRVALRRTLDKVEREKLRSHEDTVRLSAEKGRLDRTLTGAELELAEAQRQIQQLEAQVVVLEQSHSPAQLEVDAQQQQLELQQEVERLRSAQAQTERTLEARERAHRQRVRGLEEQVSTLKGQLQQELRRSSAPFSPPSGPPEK
UniProt P50461: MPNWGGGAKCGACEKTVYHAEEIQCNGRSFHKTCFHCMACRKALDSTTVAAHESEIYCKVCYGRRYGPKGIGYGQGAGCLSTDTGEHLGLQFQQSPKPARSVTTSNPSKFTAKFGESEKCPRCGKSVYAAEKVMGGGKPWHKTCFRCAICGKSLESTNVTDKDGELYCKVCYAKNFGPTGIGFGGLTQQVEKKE
UniProt P35222, whole entry, looked up: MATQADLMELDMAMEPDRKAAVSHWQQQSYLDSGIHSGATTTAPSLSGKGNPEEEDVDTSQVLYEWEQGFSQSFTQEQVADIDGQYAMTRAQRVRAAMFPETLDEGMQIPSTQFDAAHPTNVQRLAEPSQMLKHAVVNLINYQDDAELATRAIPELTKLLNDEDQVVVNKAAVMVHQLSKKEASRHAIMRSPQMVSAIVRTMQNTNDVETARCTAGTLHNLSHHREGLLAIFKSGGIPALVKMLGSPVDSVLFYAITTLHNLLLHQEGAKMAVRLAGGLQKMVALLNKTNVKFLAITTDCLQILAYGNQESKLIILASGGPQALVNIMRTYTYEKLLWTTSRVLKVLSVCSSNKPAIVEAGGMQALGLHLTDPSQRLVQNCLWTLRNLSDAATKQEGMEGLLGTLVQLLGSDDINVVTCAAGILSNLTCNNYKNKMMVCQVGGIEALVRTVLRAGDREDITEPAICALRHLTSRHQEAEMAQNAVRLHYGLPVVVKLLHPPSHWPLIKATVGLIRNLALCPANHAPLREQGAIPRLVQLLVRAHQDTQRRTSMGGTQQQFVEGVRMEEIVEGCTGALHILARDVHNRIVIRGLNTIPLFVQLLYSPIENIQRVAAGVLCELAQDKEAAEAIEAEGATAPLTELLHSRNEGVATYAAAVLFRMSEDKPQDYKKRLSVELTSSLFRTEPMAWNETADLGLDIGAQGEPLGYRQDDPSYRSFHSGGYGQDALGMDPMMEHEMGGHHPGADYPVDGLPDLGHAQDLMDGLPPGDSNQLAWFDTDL
UniProt P99999: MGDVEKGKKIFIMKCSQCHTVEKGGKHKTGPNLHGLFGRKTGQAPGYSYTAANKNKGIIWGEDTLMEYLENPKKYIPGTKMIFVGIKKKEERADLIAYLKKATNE
UniProt P48729: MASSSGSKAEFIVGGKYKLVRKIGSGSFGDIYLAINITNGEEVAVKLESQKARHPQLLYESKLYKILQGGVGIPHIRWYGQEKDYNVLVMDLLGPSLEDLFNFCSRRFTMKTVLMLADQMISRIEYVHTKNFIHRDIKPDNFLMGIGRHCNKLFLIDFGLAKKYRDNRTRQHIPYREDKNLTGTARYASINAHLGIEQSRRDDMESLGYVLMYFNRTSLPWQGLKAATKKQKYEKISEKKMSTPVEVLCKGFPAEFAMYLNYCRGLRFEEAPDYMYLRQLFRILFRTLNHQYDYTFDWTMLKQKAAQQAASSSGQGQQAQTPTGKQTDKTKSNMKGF
UniProt P16220: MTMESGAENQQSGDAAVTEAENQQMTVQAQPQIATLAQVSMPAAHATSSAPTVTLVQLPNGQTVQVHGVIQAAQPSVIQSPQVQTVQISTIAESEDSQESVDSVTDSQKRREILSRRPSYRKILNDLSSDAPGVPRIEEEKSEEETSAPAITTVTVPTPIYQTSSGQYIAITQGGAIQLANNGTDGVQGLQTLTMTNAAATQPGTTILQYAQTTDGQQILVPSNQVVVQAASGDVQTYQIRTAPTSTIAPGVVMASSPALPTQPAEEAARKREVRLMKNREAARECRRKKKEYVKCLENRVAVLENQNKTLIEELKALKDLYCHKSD
UniProt P01034: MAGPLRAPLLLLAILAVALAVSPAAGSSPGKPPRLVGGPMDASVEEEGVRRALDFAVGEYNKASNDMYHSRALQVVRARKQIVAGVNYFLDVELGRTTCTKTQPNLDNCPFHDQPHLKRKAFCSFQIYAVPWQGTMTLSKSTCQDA
UniProt Q8WYA6: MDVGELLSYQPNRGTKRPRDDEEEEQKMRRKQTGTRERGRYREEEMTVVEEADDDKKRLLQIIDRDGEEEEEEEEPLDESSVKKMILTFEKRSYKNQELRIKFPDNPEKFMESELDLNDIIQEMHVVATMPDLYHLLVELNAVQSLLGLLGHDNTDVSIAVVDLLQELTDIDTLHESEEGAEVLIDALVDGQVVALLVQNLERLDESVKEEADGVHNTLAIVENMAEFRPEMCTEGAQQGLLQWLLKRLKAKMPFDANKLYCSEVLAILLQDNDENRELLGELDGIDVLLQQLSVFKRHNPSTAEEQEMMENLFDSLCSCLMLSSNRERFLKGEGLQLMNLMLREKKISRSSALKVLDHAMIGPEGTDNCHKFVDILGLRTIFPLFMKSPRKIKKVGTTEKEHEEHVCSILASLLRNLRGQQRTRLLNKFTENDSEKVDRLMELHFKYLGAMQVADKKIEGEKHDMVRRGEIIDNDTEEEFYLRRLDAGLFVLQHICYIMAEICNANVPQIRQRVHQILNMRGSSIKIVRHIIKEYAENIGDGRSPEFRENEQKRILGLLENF
UniProt O75629: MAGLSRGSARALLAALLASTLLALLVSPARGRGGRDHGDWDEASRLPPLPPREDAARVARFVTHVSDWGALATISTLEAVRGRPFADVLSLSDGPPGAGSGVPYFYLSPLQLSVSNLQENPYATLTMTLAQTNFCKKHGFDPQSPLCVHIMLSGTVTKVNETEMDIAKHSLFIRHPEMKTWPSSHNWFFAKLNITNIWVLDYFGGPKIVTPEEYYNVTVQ
UniProt Q2TBE0: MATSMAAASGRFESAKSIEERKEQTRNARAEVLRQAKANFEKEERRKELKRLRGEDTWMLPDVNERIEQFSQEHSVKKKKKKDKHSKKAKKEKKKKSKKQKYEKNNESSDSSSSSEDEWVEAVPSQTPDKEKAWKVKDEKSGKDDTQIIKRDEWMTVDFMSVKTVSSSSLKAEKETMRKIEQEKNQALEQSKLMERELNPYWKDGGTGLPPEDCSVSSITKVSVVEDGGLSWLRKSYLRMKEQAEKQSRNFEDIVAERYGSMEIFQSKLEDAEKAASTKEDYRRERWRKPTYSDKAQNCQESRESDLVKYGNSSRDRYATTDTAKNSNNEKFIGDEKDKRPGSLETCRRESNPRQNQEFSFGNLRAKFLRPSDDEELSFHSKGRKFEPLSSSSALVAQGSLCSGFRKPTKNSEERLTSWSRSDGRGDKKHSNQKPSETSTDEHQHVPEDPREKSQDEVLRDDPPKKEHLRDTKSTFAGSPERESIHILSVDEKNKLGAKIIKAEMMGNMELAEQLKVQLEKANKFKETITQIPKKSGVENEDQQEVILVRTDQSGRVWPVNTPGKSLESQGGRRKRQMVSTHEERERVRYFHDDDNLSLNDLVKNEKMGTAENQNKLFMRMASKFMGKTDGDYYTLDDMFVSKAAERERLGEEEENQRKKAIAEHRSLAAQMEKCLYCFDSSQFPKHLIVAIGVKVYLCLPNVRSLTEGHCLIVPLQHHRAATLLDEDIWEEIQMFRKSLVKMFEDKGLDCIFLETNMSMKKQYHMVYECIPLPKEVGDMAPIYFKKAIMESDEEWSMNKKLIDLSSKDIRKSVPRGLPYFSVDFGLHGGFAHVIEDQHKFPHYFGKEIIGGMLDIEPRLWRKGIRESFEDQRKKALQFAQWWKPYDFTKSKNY

What follows are targets tested with c1cn2cc(-c3ccc4cn[nH]c4c3)nc(Nc3ccc(N4CCOCC4)cc3)c2n1 [entospletinib] (assay: log2 fold change, soluble protein after heating vs DMSO (PISA); higher = thermal stabilisation; K562 lysate, 10 uM; active = over 0.2 and 3.5 SD of the protein, either way, in both replicates (recomputed)).
In short: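 K562 pellets were dounce-homogenised in PBS pH 7.4 containing 1 mM MgCl2, and the crude extract, at 1 mg/mL protein, was exposed to 10 μM compound for 30 min. Aliquots were heated for 3 min across 48°C-58°C, pooled, brought to 0.5% NP-40 at 4°C and spun at 21,000xg for 90 min, with the supernatant taken as soluble protein. TMTpro 16plex LC-MS/MS with equalised channel sums quantified that protein. Values are log-two fold changes in thermal stability relative to solvent controls, taken from duplicates.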

log2 fold change, inactive:
CTSC (UniProt P53634) -0.007, CTTN isoform 2 (UniProt Q14247) 0.022, CUL5 (UniProt Q93034) 0.004, CROCC (UniProt Q5TZA2) -0.035, CSRP3 (UniProt P50461) 0, CTNNB1 (UniProt P35222) 0.022, CSPP1 (UniProt Q1MSJ5) 0.003, CSRP1 (UniProt P21291) -0.025, CYCS (UniProt P99999) 0.011, CTIF isoform 2 (UniProt O43310) 0.063, CSNK1A1 (UniProt P48729) 0.017, CTC1 (UniProt Q2NKJ3) 0.116, CREB1 (UniProt P16220) 0.029, CYBA (UniProt P13498) 0.021, CST3 (UniProt P01034) -0.027, CTNNAL1 (UniProt Q9UBT7) -0.052, CTSH (UniProt P09668) 0.092, CTNNBL1 (UniProt Q8WYA6) -0.011, CTPS2 (UniProt Q9NRF8) 0.019, CREG1 (UniProt O75629) -0.004, CSTF3 (UniProt Q12996) -0.008, CTNND1 isoform 3 (UniProt O60716) -0.005, CYP20A1 (UniProt Q6UW02) -0.004, CWF19L2 (UniProt Q2TBE0) -0.011, CUL4B (UniProt Q13620) 0.016, CXorf56 (UniProt Q9H5V9) -0.03, CYB5R1 (UniProt Q9UHQ9) 0.005, CTSA (UniProt P10619) -0.009, CYFIP1 (UniProt Q7L576) 0.018, CTPS1 (UniProt P17812) -0.005
